According to publication PMC4541046:
These are yes or no findings as the source states them, for the method shown. Binding seen in cells or lysates may run through a third protein. Binding can be weak; no strength is given. Each block holds one molecule with its values, some of them ahead of it.

By UniProt entry, the sequences of proteins in these tests, tags left out. Where a name states a change or a piece, a line headed by the entry shows the natural chain unless it says otherwise.
UniProt P49023: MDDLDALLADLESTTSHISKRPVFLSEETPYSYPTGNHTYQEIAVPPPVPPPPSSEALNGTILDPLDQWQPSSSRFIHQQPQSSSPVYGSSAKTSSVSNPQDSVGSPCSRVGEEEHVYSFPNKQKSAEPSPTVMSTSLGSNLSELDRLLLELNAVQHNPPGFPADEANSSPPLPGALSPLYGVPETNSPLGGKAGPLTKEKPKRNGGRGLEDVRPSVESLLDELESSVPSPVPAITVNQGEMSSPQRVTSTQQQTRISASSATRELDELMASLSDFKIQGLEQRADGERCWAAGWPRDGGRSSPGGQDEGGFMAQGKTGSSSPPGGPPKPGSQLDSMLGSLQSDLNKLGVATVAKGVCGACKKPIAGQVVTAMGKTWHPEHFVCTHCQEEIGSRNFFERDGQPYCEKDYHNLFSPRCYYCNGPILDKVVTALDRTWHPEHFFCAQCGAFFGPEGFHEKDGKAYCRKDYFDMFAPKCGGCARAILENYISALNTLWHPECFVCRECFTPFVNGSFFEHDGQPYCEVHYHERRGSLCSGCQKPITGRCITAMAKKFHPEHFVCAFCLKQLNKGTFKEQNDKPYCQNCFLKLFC
UniProt Q9UQE7: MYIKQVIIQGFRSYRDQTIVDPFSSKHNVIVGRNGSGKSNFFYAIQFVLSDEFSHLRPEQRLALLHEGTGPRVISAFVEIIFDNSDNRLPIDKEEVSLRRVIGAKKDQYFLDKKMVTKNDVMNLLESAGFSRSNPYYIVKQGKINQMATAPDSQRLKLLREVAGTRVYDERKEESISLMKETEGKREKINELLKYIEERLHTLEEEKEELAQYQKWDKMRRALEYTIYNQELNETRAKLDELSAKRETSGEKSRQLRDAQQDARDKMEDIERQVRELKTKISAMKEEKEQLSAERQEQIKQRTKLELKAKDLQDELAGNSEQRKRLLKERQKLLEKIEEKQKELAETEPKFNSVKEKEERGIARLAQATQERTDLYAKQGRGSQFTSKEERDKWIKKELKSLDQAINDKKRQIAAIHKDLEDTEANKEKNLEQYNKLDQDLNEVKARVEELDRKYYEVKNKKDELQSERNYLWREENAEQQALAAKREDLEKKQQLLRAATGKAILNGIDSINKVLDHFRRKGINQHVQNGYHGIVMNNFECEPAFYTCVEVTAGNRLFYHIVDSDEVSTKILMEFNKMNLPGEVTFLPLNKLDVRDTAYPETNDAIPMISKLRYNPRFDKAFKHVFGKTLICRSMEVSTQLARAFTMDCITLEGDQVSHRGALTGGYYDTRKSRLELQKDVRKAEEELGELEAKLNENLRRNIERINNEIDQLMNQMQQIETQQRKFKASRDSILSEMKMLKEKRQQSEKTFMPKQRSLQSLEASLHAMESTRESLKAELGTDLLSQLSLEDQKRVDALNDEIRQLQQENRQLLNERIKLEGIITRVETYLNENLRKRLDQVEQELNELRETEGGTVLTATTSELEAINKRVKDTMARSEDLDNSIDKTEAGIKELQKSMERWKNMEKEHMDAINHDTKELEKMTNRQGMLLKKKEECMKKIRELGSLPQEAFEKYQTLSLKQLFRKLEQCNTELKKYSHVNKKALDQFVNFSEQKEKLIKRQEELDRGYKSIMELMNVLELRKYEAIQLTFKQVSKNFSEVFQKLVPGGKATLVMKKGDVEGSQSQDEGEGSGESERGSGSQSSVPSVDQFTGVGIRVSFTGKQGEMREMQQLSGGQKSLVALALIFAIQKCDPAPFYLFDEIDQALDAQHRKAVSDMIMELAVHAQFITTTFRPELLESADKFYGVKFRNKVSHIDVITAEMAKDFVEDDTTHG

Biological target: EGFP–STrEP-paxillin (PXN) (human) (UniProt P49023)
Assay: pull-down; Strep-Tactin sepharose beads added to the lysate of HEK293 cells stably expressing STrEP-EGFP–PXN or STrEP-EGFP (control), 2 h; lysis buffer 20 mM HEPES-KOH pH 7.40, 5 mM CH3COOK, 150 mM NaCl, 0.5 mM MgCl2, 0.5 mM DTT, 0.5% Triton X-100; eluted with 2.5 mM desthiobiotin; pull-down fractions immunoblotted

binding: binds
Molecule: structural maintenance of chromosomes 3 protein (SMC3) (from UniProt Q9UQE7 1-1217)

binding: no binding
B1: CCCTC-binding factor (CTCF) (protein, UniProt P49711 1-727)
chain: MEGDAVEAIVEESETFIKGKERKTYQRRREGGQEEDACHLPQNQTDGGEVVQDVNSSVQMVMMEQLDPTLLQMKTEVMEGTVAPEAEAAVDDTQIITLQVVNMEEQPINIGELQLVQVPVPVTVPVATTSVEELQGAYENEVSKEGLAESEPMICHTLPLPEGFQVVKVGANGEVETLEQGELPPQEDPSWQKDPDYQPPAKKTKKTKKSKLRYTEEGKDVDVSVYDFEEEQQEGLLSEVNAEKVVGNMKPPKPTKIKKKGVKKTFQCELCSYTCPRRSNLDRHMKSHTDERPHKCHLCGRAFRTVTLLRNHLNTHTGTRPHKCPDCDMAFVTSGELVRHRRYKHTHEKPFKCSMCDYASVEVSKLKRHIRSHTGERPFQCSLCSYASRDTYKLKRHMRTHSGEKPYECYICHARFTQSGTMKMHILQKHTENVAKFHCPHCDTVIARKSDLGVHLRKQHSYIEQGKKCRYCDAVFHERYALIQHQKSHKNEKRFKCDQCDYACRQERHMIMHKRTHTGEKPYACSHCDKTFRQKQLLDMHFKRYHDPNFVPAAFVCSKCGKTFTRRNTMARHADNCAGPDGVEGENGGETKKSKRGRKRKMRSKKEDSSDSENAEPDLDDNEDEEEPAVEIEPEPEPQPVTPAPPPAKKRRGRPPGRTNQPKQNQPTAIIQVEDQNTGAIENIIVEVKKEPDAEPAEGEEEEAQPAATDAPNGDLTPEMILSMMDR

binding: binds
B2: structural maintenance of chromosomes 1A protein (SMC1A) (protein, UniProt Q14683 1-1233)
chain: MGFLKLIEIENFKSYKGRQIIGPFQRFTAIIGPNGSGKSNLMDAISFVLGEKTSNLRVKTLRDLIHGAPVGKPAANRAFVSMVYSEEGAEDRTFARVIVGGSSEYKINNKVVQLHEYSEELEKLGILIKARNFLVFQGAVESIAMKNPKERTALFEEISRSGELAQEYDKRKKEMVKAEEDTQFNYHRKKNIAAERKEAKQEKEEADRYQRLKDEVVRAQVQLQLFKLYHNEVEIEKLNKELASKNKEIEKDKKRMDKVEDELKEKKKELGKMMREQQQIEKEIKEKDSELNQKRPQYIKAKENTSHKIKKLEAAKKSLQNAQKHYKKRKGDMDELEKEMLSVEKARQEFEERMEEESQSQGRDLTLEENQVKKYHRLKEEASKRAATLAQELEKFNRDQKADQDRLDLEERKKVETEAKIKQKLREIEENQKRIEKLEEYITTSKQSLEEQKKLEGELTEEVEMAKRRIDEINKELNQVMEQLGDARIDRQESSRQQRKAEIMESIKRLYPGSVYGRLIDLCQPTQKKYQIAVTKVLGKNMDAIIVDSEKTGRDCIQYIKEQRGEPETFLPLDYLEVKPTDEKLRELKGAKLVIDVIRYEPPHIKKALQYACGNALVCDNVEDARRIAFGGHQRHKTVALDGTLFQKSGVISGGASDLKAKARRWDEKAVDKLKEKKERLTEELKEQMKAKRKEAELRQVQSQAHGLQMRLKYSQSDLEQTKTRHLALNLQEKSKLESELANFGPRINDIKRIIQSREREMKDLKEKMNQVEDEVFEEFCREIGVRNIREFEEEKVKRQNEIAKKRLEFENQKTRLGIQLDFEKNQLKEDQDKVHMWEQTVKKDENEIEKLKKEEQRHMKIIDETMAQLQDLKNQHLAKKSEVNDKNHEMEEIRKKLGGANKEMTHLQKEVTAIETKLEQKRSDRHNLLQACKMQDIKLPLSKGTMDDISQEEGSSQGEDSVSGSQRISSIYAREALIEIDYGDLCEDLKDAQAEEEIKQEMNTLQQKLNEQQSVLQRIAAPNMKAMEKLESVRDKFQETSDEFEAARKRAKKAKQAFEQIKKERFDRFNACFESVATNIDEIYKALSRNSSAQAFLGPENPEEPYLDGINYNCVAPGKRFRPMDNLSGGEKTVAALALLFAIHSYKPAPFFVLDEIDAALDNTNIGKVANYIKEQSTCNFQAIVISLKEEFYTKAESLIGVYPEQGDCVISKVLTFDLTKYPDANPNPNEQ

binding: binds
B3: mediator subunit 23 (MED23) (protein, UniProt Q9ULK4 1-1368)
chain: METQLQSIFEEVVKTEVIEEAFPGMFMDTPEDEKTKLISCLGAFRQFWGGLSQESHEQCIQWIVKFIHGQHSPKRISFLYDCLAMAVETGLLPPRLVCESLINSDTLEWERTQLWALTFKLVRKIIGGVDYKGVRDLLKVILEKILTIPNTVSSAVVQQLLAAREVIAYILERNACLLPAYFAVTEIRKLYPEGKLPHWLLGNLVSDFVDTFRPTARINSICGRCSLLPVVNNSGAICNSWKLDPATLRFPLKGLLPYDKDLFEPQTALLRYVLEQPYSRDMVCNMLGLNKQHKQRCPVLEDQLVDLVVYAMERSETEEKFDDGGTSQLLWQHLSSQLIFFVLFQFASFPHMVLSLHQKLAGRGLIKGRDHLMWVLLQFISGSIQKNALADFLPVMKLFDLLYPEKEYIPVPDINKPQSTHAFAMTCIWIHLNRKAQNDNSKLQIPIPHSLRLHHEFLQQSLRNKSLQMNDYKIALLCNAYSTNSECFTLPMGALVETIYGNGIMRIPLPGTNCMASGSITPLPMNLLDSLTVHAKMSLIHSIATRVIKLAHAKSSVALAPALVETYSRLLVYMEIESLGIKGFISQLLPTVFKSHAWGILHTLLEMFSYRMHHIQPHYRVQLLSHLHTLAAVAQTNQNQLHLCVESTALRLITALGSSEVQPQFTRFLSDPKTVLSAESEELNRALILTLARATHVTDFFTGSDSIQGTWCKDILQTIMSFTPHNWASHTLSCFPGPLQAFFKQNNVPQESRFNLKKNVEEEYRKWKSMSNENDIITHFSMQGSPPLFLCLLWKMLLETDHINQIGYRVLERIGARALVAHVRTFADFLVYEFSTSAGGQQLNKCIEILNDMVWKYNIVTLDRLILCLAMRSHEGNEAQVCYFIIQLLLLKPNDFRNRVSDFVKENSPEHWLQNDWHTKHMNYHKKYPEKLYFEGLAEQVDPPVQIQSPYLPIYFGNVCLRFLPVFDIVIHRFLELLPVSKSLETLLDHLGGLYKFHDRPVTYLYNTLHYYEMHLRDRAFLKRKLVHAIIGSLKDNRPQGWCLSDTYLKCAMNAREENPWVPDDTYYCRLIGRLVDTMAGKSPGPFPNCDWRFNEFPNPAAHALHVTCVELMALAVSGKEVGNALLNVVLKSQPLVPRENITAWMNAIGLIITALPEPYWIVLHDRIVSVISSPSLTSETEWVGYPFRLFDFTACHQSYSEMSCSYTLALAHAVWHHSSIGQLSLIPKFLTEVLLPIVKTEFQLLYVYHLVGPFLQRFQQERTRCMIEIGVAFYDMLLNVDQCSTHLNYMDPICDFLYHMKYMFTGDSVKEQVEKIICNLKPALKLRLRFITHISKMEPAAVPPQAMNSGSPAPQSNQVPVSLPVTQ
